From the supplement of paper PMC9744312
Structures can show the parent of a compound that is named as a salt. This is one part of the list. This is a noisy data set.

What follows are molecules tested on Peyronie's disease tunica albuginea primary fibroblasts (assay: cell viability (DRAQ5 nuclear stain) relative to TGF-beta1-only control; higher = more viable cells). Details: 10 µM; TGF-beta1 10 ng/mL; 72 h.

SMILES	cell viability
Cc1cncc(CN2CCC(=C3c4ccc(Cl)cc4CCc4cccnc43)CC2)c1 [Rupatadine Fumarate]	98.5%
O=c1[nH]cc(F)c(=O)[nH]1 [Fluorouracil (5-Fluoracil, 5-FU)]	68.1%
C[C@]12C=CC(=O)C=C1CC[C@@H]1[C@@H]2[C@@H](O)C[C@@]2(C)[C@H]1CC[C@]2(O)C(=O)CO [Prednisolone]	80.4%
NS(=O)(=O)c1cc2c(cc1Cl)N=C(CSCc1ccccc1)NS2(=O)=O [Benzthiazide]	111%
CC(=O)OC/C=C(C)/C=C/C=C(C)/C=C/C1=C(C)CCCC1(C)C [Vitamin A Acetate]	91%
CCCCCCCCCCCCCCCCCC(=O)O [Stearic acid]	115%
CO[C@@]1(NC(=O)C(C(=O)O)c2ccc(O)cc2)C(=O)N2C(C(=O)O)=C(CSc3nnnn3C)CO[C@@H]21 (some centres not stated) [Latamoxef sodium]	52.9%
C=CCc1cc(OC)c(O)c(C(=O)NCCO)c1 [Alibendol]	80.8%
C#C[C@]1(O)CC[C@H]2[C@@H]3CCC4=CC(=O)CC[C@@H]4[C@H]3CC[C@@]21C [Norethindrone]	94.6%
C#C[C@]1(OC(C)=O)CC[C@H]2[C@@H]3CCC4=C[C@@H](OC(C)=O)CC[C@@H]4[C@H]3CC[C@@]21C [Ethynodiol diacetate]	103%
Nc1ccc(S(=O)(=O)Nc2ncccn2)cc1 [Sodium sulfadiazine]	82.6%
Nc1ccc(S(=O)(=O)Nc2ncccn2)cc1 [Sulfadiazine]	92%
Nc1ccc(O)c(C(=O)O)c1 [Mesalamine]	92%
CN(C)CCCN1c2ccccc2CCc2ccc(Cl)cc21 [Clomipramine HCl]	80.3%
Cc1cc(NC(=O)C2=C(O)c3ccccc3S(=O)(=O)N2C)no1 [Isoxicam]	88.3%
CCCCCCCC(=O)N[C@H](CN1CCCC1)[C@H](O)c1ccc2c(c1)OCCO2 [Eliglustat]	84.9%
CC(C)NC[C@H](O)COc1ccc(CCOCC2CC2)cc1 [Levobetaxolol HCl]	97.5%
C1=N/C2=N/c3ccc(OCCN4CCCC4)c(c3)COC/C=C/COCc3cccc(c3)C(=C1)N2 [Pacritinib (SB1518)]	40.7%
COc1ccc2cccc(CCNC(C)=O)c2c1 [Agomelatine]	89.9%
CC(C)NCC(O)c1ccc(NS(C)(=O)=O)cc1 (configuration not stated) [Sotalol HCl]	87.7%
C#C[C@]1(O)CC[C@H]2[C@@H]3CCc4cc(OC)ccc4[C@H]3CC[C@@]21C [Mestranol]	89.2%
N=C(N)NCCC[C@@H](NC(=O)[C@@H]1CCCN1C(=O)[C@@H]1CSSCCC(=O)N[C@@H](Cc2ccc(O)cc2)C(=O)N[C@@H](Cc2ccccc2)C(=O)N[C@@H](CCC(N)=O)C(=O)N[C@@H](CC(N)=O)C(=O)N1)C(=O)NCC(N)=O [Desmopressin Acetate]	99.2%

Six entries from above in another layout.

| SMILES | cell viability |
| --- | --- |
| C#C[C@]1(OC(C)=O)CC[C@H]2[C@@H]3CCC4=C[C@@H](OC(C)=O)CC[C@@H]4[C@H]3CC[C@@]21C [Ethynodiol diacetate] | 103% |
| Nc1ccc(S(=O)(=O)Nc2ncccn2)cc1 [Sodium sulfadiazine] | 82.6% |
| Nc1ccc(S(=O)(=O)Nc2ncccn2)cc1 [Sulfadiazine] | 92% |
| Nc1ccc(O)c(C(=O)O)c1 [Mesalamine] | 92% |
| CN(C)CCCN1c2ccccc2CCc2ccc(Cl)cc21 [Clomipramine HCl] | 80.3% |
| Cc1cc(NC(=O)C2=C(O)c3ccccc3S(=O)(=O)N2C)no1 [Isoxicam] | 88.3% |
